Data as given in publication doi:10.1101/2020.12.22.423980.
These are yes or no findings as the source states them, for the method shown. Some entries that bind do so weakly or less than the wild type. Tags and fused reporters may be left off the sequences shown.

Tests used:
[1] = target: T1, Drosophila Chc fragment, amino acids 329-803, GAL4 DNA-binding domain fusion (pChc(329-803)-BD) (Drosophila) (UniProt P29742); experiment: two-hybrid
T1 sequence: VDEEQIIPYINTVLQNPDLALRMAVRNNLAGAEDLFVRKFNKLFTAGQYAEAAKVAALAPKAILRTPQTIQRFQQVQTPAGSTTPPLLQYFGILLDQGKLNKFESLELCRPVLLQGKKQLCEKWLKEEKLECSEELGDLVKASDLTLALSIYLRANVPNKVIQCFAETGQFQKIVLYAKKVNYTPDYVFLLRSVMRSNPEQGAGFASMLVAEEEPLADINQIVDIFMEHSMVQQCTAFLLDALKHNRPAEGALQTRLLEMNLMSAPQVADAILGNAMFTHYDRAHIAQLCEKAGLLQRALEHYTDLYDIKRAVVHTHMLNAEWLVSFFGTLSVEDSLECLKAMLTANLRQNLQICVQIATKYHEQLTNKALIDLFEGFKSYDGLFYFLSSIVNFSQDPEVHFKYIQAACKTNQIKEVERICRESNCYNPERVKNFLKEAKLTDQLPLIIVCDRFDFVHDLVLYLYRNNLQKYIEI

[2] = target: T2, Drosophila Chc fragment, amino acids 329-542, GAL4 DNA-binding domain fusion (pChc(329-542)-BD) (Drosophila) (UniProt P29742); experiment: two-hybrid
T2 sequence: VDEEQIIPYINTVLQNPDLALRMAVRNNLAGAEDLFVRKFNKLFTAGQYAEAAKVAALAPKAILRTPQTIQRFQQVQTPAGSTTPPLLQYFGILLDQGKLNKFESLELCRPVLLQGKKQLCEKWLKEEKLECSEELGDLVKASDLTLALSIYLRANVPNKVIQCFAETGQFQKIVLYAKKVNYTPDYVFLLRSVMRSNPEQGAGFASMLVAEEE

B1: Drosophila BicD carboxy-terminal domain (CTD; amino acids 535-782), GAL4 fusion (domain or fragment, UniProt P16568 535-782)
chain: TAIQSQFKSDVFIAKPQIVEDLQGLADSVEIKKYVDTVSDQIKYLKTAVEHTIDMNKHKIRSEGGDALEKVNTEEMEELQEQIVKLKSLLSVKREQIGTLRNVLKSNKQTAEVALTNLKSKYENEKIIVSDTMSKLRNELRLLKEDAATFSSLRAMFAARCEEYVTQVDDLNRQLEAAEEEKKTLNQLLRLAVQQKLALTQRLEEMEMDREMRHVRRPMPAQRGTSGKSSFSTRPSSRNPASSNANPF
Which binding [1] does the source give for B1 here?
Its binding is “binds”.

B2: Drosophila Bicaudal-D (BicD), full-length, GAL4 fusion (pBicD-AD or pBicD-BD) (protein, UniProt P16568 1-782)
chain: MSSASNNGPSADQSVQDLQMEVERLTRELDQVSSASAQSAQYGLSLLEEKSALQQKCEELETLYDNTRHELDITQEALTKFQTSQKVTNKTGIEQEDALLNESAARETSLNLQIFDLENELKQLRHELERVRNERDRMLQENSDFGRDKSDSEADRLRLKSELKDLKFRETRMLSEYSELEEENISLQKQVSSLRSSQVEFEGAKHEIRRLTEEVELLNQQVDELANLKKIAEKQMEEALETLQGEREAKYALKKELDGHLNRESMYHISNLAYSIRSNMEDNASNNSDGEEENLALKRLEADLSTELKSPDGTKCDLFSEIHLNELKKLEKQLESMESEKTHLTANLREAQTSLDKSQNELQNFMSRLALLAAHVDALVQLKKQIDVKEQGKEGGQKKDELEQQLRALISQYANWFTLSAKEIDGLKTDIAELQKGLNYTDATTTLRNEVTNLKNKLLATEQKSLDLQSDVQTLTHISQNAGQSLGSARSTLVALSDDLAQLYHLVCTVNGETPTRVLLDHKTDDMSFENDSLTAIQSQFKSDVFIAKPQIVEDLQGLADSVEIKKYVDTVSDQIKYLKTAVEHTIDMNKHKIRSEGGDALEKVNTEEMEELQEQIVKLKSLLSVKREQIGTLRNVLKSNKQTAEVALTNLKSKYENEKIIVSDTMSKLRNELRLLKEDAATFSSLRAMFAARCEEYVTQVDDLNRQLEAAEEEKKTLNQLLRLAVQQKLALTQRLEEMEMDREMRHVRRPMPAQRGTSGKSSFSTRPSSRNPASSNANPF
For B2, which binding [2] is on record?
Its binding is “no binding”.
